The values below come from article PMC13227277, “Targeting CIRP and IL-6R-mediated microglial inflammation to improve outcomes in intracerebral hemorrhage” (Journal of Advanced Research, 2025).

For the experiment, the target named is T1, CIRP precipitated from IL-6R-overexpressing HEK 293T cells (UniProt Q14011).
T1 sequence: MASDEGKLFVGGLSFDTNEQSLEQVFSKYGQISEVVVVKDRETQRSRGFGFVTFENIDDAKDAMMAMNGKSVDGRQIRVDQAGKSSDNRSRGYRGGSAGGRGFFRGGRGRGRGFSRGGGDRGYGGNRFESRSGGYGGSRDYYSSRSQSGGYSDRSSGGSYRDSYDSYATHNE
The experiment is described as follows: co-IP.

These are yes or no findings as the source states them, for the method shown. Binding seen in cells or lysates may run through a third protein. Binding can be weak; no strength is given.

Take “IL-6R overexpressed in HEK 293T cells (pcDNA3.1(+)-IL6r-3xFLAG-P2A-EGFP) (receptor)”: the binding entry is “binds”.
